Assay results reported in US12410457B2, “Use of rosmarinic acid in cell bioproduction” (BRISTOL-MYERS SQUIBB COMPANY, priority 2015, dated 2025).
At least one compound was matched to its structure with a doubt left.

System: aCD137 cells
Test: Screen of antioxidants added to feed media in aCD137 fed-batch cell culture
Type: cell-based, Chinese Hamster
Details: feed at 1 mM
Method: Following the cell culture process described in Example 1, thirteen novel antioxidants (Table 1) were added to the feed media utilized in aCD137 cell culture. Three antioxidant concentrations were evaluated: 1 mM (Run #1-13), 0.25 mM (Run #17-29), and 0.0625 mM (Run #33-45). The antioxidants were dissolved in either pure ethanol or dimethyl sulfoxide (DMSO) at 50 mM stock concentration and added to feed media M154A1B at the designed final concentrations. The corresponding solvent negative controls were run number 16, 32, and 48. Two traditional antioxidants, ascorbic acid (Run #14, 30, and 46) and reduced glutathione (Run #15, 31, and 47), served as positive controls. The basal media M171IB was not supplemented with antioxidant.
Cells were cultured either in 50 ml spin tubes with an initial volume of 25 ml and a shaking speed of 300 rpm; or 250 ml shake flasks with an initial volume of 80˜100 ml and a shaking speed of 150 rpm on an orbital shaker with 25 mm throw distance. […]
Viable cell density (VCD) and cell viability were measured off-line using a CEDEX® automated cell counter (Innovatis AG). Culture samples were also analyzed off-line using a BIOPROFILE® 400 Analyzer to monitor pH, pCO2, pO2, glucose, glutamine, glutamate, lactate, and ammonium (Nova Biomedical Corporation). […]

| SMILES | protein titer |
| --- | --- |
| Oc1ccc(-c2[o+]c3cc(O)cc(O)c3cc2O)cc1 [Pelargonidin, pelargonidin] | increased protein titer |
| COc1cc(C2Oc3cc([C@H]4Oc5cc(O)cc(O)c5C(=O)[C@@H]4O)ccc3OC2CO)ccc1O (some centres unmarked) [Silibinin, silibinin] | increased protein titer |
